From PMC12629859 come the findings set out here.

By UniProt entry, the sequences of proteins in these tests, tags left out. Where a name states a change or a piece, a line headed by the entry shows the natural chain unless it says otherwise. Residues count along the entry.
USP20-UCH domain (Q9Y2K6, residues 145-647): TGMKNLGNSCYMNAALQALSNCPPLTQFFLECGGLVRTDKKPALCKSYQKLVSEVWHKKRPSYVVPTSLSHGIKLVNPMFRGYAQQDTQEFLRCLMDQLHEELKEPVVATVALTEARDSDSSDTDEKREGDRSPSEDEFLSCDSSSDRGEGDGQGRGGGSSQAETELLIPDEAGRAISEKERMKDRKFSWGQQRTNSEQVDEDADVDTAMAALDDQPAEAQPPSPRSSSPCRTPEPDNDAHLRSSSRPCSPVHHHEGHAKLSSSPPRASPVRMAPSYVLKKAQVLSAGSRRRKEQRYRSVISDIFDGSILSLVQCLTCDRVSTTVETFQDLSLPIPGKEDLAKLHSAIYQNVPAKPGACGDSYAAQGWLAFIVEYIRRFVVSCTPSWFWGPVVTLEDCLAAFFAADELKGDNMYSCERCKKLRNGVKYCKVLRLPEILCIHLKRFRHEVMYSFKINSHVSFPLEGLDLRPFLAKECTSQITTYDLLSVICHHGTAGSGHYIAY
UniProt P07711: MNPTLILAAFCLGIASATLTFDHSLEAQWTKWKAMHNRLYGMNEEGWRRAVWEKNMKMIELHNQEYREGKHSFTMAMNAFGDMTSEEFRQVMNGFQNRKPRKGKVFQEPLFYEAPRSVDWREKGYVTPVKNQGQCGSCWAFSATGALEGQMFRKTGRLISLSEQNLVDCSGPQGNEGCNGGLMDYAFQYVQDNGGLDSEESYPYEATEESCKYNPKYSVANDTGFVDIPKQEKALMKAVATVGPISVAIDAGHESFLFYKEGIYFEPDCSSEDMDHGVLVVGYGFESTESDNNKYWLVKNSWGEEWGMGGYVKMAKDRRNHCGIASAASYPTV
UniProt Q9UNE7: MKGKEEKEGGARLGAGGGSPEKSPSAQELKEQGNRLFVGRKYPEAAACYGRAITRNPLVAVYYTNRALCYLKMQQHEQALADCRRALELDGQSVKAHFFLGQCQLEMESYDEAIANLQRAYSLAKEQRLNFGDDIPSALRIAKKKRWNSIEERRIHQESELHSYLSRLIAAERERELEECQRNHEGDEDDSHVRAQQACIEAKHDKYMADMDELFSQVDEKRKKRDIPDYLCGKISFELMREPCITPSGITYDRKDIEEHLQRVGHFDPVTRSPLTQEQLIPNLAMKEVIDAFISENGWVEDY

The target of experiment [1] is USP20-UCH domain (amino acids 145-647) (UniProt Q9Y2K6). Briefly: co-IP; HEK293T cells co-transfected with Flag-CTSL and HA-tagged USP14, USP12 (48 hours) or USP20 constructs; for the USP20 constructs IP with anti-HA and blot with anti-Flag.
In experiment [2] the target is Cathepsin L (CTSL), endogenous (human (endogenous in FaDu and HN8)) (UniProt P07711). Briefly: co-IP; endogenous proteins in FaDu and HN8 lysates; IP lysis buffer, overnight at 4°C with the indicated antibodies, Western blot. A general note: In western blotting, separated proteins are transferred to a membrane and probed.
The target is the same in experiment [3]. Briefly: co-IP; HN8 and FaDu cells transfected with Flag-STUB1 and HA-USP20; endogenous CTSL.
For experiment [4] the target is unchanged. Briefly: co-IP; total lysates of HN8 cells with or without USP20 knockdown, or FaDu cells with or without USP20 overexpression; IP with anti-CTSL or anti-STUB1; cells treated with MG132.

No constants are given. Whether binding was seen depends on the method and setting. In cells and extracts the contact can be indirect. Binding can be weak; no strength is given.

Take “Full-length Flag-CTSL (HEK293T cells) (from UniProt P07711)”: the binding entry in experiment [1] is “binds”.
As to “Ubiquitin-specific protease 20 (USP20), endogenous (from UniProt Q9Y2K6 1-914) (enzyme)”, the binding result in experiment [2] was “binds”.
For “Flag-STUB1 (HN8 and FaDu cells) (from UniProt Q9UNE7 1-303) (enzyme)”, the binding entry in experiment [3] is “binds”.
Take “STUB1 (carboxyl terminus of Hsc70-interacting protein), endogenous (from UniProt Q9UNE7 1-303) (enzyme)”: the binding result in experiment [4] is reported as “binds”.
